{
  "sequences": {"note": "The chains behind the UniProt entries cited, without tags or fusion partners.", "UniProt P70600": "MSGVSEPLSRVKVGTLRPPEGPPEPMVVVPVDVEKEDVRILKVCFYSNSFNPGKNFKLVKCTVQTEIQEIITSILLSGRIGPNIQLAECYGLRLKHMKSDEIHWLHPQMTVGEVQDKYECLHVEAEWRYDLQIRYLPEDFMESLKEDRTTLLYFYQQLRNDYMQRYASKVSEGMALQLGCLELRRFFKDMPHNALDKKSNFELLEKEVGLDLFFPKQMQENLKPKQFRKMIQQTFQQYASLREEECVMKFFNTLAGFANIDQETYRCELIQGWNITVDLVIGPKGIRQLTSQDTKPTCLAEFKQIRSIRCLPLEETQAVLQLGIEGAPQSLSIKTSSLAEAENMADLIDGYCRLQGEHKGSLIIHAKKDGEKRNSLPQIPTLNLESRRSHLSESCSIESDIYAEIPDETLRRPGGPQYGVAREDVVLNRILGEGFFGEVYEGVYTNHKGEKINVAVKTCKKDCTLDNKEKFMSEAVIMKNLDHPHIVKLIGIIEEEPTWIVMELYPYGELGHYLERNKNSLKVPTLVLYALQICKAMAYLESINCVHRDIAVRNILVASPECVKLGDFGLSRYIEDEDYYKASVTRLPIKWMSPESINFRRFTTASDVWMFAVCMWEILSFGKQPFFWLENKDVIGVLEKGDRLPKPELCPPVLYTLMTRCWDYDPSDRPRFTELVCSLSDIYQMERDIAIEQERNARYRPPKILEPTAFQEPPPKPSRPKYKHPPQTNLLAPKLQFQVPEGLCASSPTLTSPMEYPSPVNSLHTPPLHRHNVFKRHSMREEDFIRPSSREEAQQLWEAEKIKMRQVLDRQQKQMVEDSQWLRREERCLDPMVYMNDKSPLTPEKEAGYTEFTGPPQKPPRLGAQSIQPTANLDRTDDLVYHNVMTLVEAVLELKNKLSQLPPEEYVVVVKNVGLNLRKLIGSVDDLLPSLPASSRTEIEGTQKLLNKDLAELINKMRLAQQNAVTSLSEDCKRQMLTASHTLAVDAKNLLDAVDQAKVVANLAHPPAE", "UniProt Q9ES67": "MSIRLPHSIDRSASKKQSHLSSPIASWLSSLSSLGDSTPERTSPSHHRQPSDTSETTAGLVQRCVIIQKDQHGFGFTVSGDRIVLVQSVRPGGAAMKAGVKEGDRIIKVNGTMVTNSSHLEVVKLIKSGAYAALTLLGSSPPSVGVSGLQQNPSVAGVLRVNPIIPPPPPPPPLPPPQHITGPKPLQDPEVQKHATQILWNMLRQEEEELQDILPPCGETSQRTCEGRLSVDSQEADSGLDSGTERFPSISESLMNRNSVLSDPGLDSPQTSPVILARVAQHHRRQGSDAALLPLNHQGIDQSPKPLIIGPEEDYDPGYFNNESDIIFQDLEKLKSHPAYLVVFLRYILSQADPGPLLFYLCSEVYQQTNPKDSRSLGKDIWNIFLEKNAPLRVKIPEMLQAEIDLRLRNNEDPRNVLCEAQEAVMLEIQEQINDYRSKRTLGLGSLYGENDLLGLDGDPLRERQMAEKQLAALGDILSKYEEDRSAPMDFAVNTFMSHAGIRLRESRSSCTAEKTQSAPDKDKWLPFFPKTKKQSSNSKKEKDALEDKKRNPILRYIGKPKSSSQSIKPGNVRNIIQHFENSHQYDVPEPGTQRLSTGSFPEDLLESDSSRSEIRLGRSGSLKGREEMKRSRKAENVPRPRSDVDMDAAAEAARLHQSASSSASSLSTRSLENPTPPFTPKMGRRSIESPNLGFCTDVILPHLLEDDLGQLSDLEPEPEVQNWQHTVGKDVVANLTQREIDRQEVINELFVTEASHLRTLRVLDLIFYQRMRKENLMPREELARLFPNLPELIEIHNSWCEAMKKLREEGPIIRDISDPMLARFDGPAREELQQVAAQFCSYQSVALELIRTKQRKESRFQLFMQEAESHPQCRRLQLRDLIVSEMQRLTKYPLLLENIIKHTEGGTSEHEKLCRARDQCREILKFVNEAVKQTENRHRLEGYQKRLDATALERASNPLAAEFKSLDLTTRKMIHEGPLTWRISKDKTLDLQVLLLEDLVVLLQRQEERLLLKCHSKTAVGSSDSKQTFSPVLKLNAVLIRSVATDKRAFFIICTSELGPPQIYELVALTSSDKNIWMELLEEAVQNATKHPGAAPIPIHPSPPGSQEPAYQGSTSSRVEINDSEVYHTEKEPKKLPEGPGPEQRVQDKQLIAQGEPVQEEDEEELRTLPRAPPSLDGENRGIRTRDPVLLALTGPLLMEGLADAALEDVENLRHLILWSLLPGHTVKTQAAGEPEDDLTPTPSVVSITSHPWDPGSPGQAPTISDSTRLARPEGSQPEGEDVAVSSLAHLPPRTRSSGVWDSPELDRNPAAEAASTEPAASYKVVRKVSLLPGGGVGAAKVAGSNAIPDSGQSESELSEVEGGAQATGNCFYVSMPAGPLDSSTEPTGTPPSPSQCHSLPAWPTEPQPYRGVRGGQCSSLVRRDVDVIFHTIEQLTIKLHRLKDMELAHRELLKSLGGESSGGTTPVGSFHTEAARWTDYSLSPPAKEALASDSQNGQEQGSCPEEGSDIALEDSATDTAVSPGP"},
  "source": "paper PMC12429383",
  "target": "phosphorylated Pyk2 at Tyr402 (proline-rich tyrosine kinase 2) (rat (endogenous in rat caudal arterial smooth muscle)) (UniProt P70600)",
  "experiment": "co-IP; anti-phospho-Pyk2 (Tyr402) antibody on Dynabeads Protein G, incubated 30 min with RIPA extract of endothelium-denuded rat caudal arterial smooth muscle strips (unstimulated, 60 mM K+ for 5 min, or 60 mM K+ after 10 mM sodium salicylate for 20 min); normal mouse IgG as control; Western blot of the precipitate",
  "note": "Results are given in words; binding and its absence hold for the method and conditions named. In cells and extracts the contact can be indirect. Some results given as binding are weak or reduced against the parent protein; the word gives no strength.",
  "data": [
    {"substance": "ArhGEF11 (PDZ-RhoGEF) (from UniProt Q9ES67 1-1527)", "values": [
      {"measurement": "binding", "result": "binds"}
    ]}
  ]
}
